Results: paper PMC10897318
These are yes or no findings as the source states them, for the method shown. Binding seen in cells or lysates may run through a third protein. Some results given as binding are weak or reduced against the parent protein; the word gives no strength. Tags and fused reporters may be left off the sequences shown.

The chains behind the UniProt entries cited, without tags or fusion partners.
UniProt Q15797: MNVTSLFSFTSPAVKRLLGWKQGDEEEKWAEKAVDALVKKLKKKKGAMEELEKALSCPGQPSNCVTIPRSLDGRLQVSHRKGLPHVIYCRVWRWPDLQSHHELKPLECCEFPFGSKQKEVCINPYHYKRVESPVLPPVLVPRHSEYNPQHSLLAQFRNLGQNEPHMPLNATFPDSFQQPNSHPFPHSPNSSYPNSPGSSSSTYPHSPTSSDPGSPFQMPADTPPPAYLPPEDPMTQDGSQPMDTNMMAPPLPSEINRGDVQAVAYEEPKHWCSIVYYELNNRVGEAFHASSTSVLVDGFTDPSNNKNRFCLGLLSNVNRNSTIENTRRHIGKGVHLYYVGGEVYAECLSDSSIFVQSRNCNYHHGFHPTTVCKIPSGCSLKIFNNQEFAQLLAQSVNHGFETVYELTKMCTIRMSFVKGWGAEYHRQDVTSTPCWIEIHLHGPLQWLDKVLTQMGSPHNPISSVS

Molecular target: SMAD1-FLAG (FLAG-tagged human SMAD1) (human) (UniProt Q15797)
Assay: co-IP; lysates of transfected HEK293T cells incubated with the indicated antibody at 4 °C overnight, protein G Dynabeads 1 h, five washes in lysis buffer, western blot

B1: ZSWIM4-Myc (Myc-tagged human Zinc Finger SWIM-Type Containing 4) (protein, UniProt Q9H7M6 1-989)
chain: MEPPAAKRSRGCPAGPEERDAGAGAARGRGRPEALLDLSAKRVAESWAFEQVEERFSRVPEPVQKRIVFWSFPRSEREICMYSSLGYPPPEGEHDARVPFTRGLHLLQSGAVDRVLQVGFHLSGNIREPGSPGEPERLYHVSISFDRCKITSVSCGCDNRDLFYCAHVVALSLYRIRHAHQVELRLPISETLSQMNRDQLQKFVQYLISAHHTEVLPTAQRLADEILLLGSEINLVNGAPDPTAGAGIEDANCWHLDEEQIQEQVKQLLSNGGYYGASQQLRSMFSKVREMLRMRDSNGARMLILMTEQFLQDTRLALWRQQGAGMTDKCRQLWDELGALWVCVVLSPHCKPEERAGWLQLLSRWDKLDVCPLEEGNYSFDGPSLQPTMAPAPELLQKGSTCITNTEGWVGHPLDPIGCLCRALLEACRLEEETLTLYPDSGPEKRKVAYQHVPVPGSPGESYLVLALEVALLGLGQQRALPEGLYAQDKVVRNEEQLLALLEEVELDERLVQVLRKQAGLLLEGGPFSGFGEVLFRESVPMHTCARYLFTALLPHDPDLAYRLALRAMRLPILETAFPAGEPHPSPLDSIMSNRFPRWFILGHLETRQCELASTMLTAAKGDPKWLHTVLGSIQQNIHSPALLFKLAQDACKTATPVSAPPDTTLLGIALELGLQVMRMTLNVMTWRRREMVRWLVSCATEIGPQALMNIMQNWYSLFTPVEAATIVAVTGTTHATLLRLQLDTSRREELWACARTLALQCAMKDPQNCALPALTLCEKNHSAFEAAYQIVLDAAAGGLGHAHLFTVARYMEHRGLPLRAYKLATLALAQLSIAFNQDSHPAVNDVLWACSLSHSLGRHELSAIVPLIIRSIHCAPMLSDILRRWTLSAPGLGPLGARRAAKPLGADRAPLCQLLDAAVTAYITTSHSRLTHISPRHYGDFIEFLGKARETFLLAPDGHLQFSQFLENLKQTYKGKKKLMLLVRERFG
  binding: binds
